The results in this text go back to US20250018040A1 (UNITED STATES OF AMERICA AS REPRESENTED BY THE SECRETARY …, published 2025).

Chains of the proteins cited; added tags and fusions are not shown. A line that says so, or that is headed by a name, gives the form on record, which may keep a tag or linker.
UniProt Q13421, other isoform, or with tags, fused parts or gaps limits assumed: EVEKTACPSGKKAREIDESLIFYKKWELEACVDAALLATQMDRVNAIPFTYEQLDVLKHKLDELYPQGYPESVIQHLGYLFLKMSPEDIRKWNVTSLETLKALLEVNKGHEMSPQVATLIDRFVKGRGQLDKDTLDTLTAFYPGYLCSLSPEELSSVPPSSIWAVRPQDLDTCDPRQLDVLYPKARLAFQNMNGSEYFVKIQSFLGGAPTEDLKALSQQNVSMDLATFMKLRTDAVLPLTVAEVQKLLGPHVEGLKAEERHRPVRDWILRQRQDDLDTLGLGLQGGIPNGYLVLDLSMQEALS

The target of assay [1] is T1, full length Fc-mesothelin (UniProt Q13421 296-598, limits assumed).
T1 construct: it is written here as in the name; also called Fc-MSLN; full length mesothelin attached to an Fc protein; not shown: Fc protein
Kind of assay: flow cytometry: Fc-mesothelin bound to 293T cells transfected with the CAR vector, detected with fluorescent anti-Fc antibody (column: Expressed by 293T cells?). Here is the method: (§1) 293T cells were independently transduced with the CAR-T vectors. Expression of each Fv by the 293T cells was tested. The CAR-T vectors were transfected into 293T cells. After two days of culture, Fc-mesothelin was bound to the cells. The bound Fc protein was detected by a secondary anti-Fc-antibody conjugated to a fluorescent dye using flow cytometry.
For orientation: A flow cytometer gives signals particle by particle.

For assay [2], the target named is T1, full length Fc-mesothelin. Kind of assay: mesothelin binding assay as in Example 7: Fc-mesothelin on 293T cells with the CAR vector, flow cytometry (column: Expressed by 293T cells?). As to the method:
as §1
293T cells were independently transduced with the CAR-T vectors. Expression of the Fv by the 293T cells was tested by a mesothelin binding assay, as described in Example 7.

Where a chain is given by its changes, count along the chain named.

B1: CAR Construct No. 1, 15B6 scFv (Vl-lin-Vh) (other)
chain: MQAVVTQESALTTSPGETVTLTCRSSTGAVTTGNYPNWVQEKPDHLFTGLIAGTNNRAPGVPARFSGSLIGDKAALTITGAQTEDEAIYFCALWFSSHWVFGGGTKLTVLGGGGSGGGGSGGGGSEVQLQQSGPVLVKPGASVKISCKASGYSFTGYYMHWVRQSLVKRLEWIGRINPYTGVPSYKHNFKDKASLTVDKSSSTAYMELHSLTSEDSAVYYCARELGGYWGQGTTLTVSSTSTTTPAPRPPTPAPTIASQPLSLRPEACRPAAGGAVHTRGLDFACDIYIWAPLAGTCGVLLLSLVITKRGRKKLLYIFKQPFMRPVQTTQEEDGCSCRFPEEEEGGCELRVKFSRSADAPAYQQGQNQLYNELNLGRREEYDVLDKRRGRDPEMGGKPRRKNPQEGLYNELQKDKMAEAYSEIGMKGERRRGKGHDGLYQGLSTATKDTYDALHMQALPPR
notes: Chimeric antigen receptor (scFv, CD8 hinge, CD8 TM, 4-1BB, CD3 zeta) on 293T cells or T cells; also called 15B6 CAR; 15B6 CAR-T cells
For B1, the binding result in assay [1] was “binds”.

B2: CAR Construct No. 9, hu15B6 scFv (huVL1-lin-huVH1) (other)
chain: MQAVVTQEPSLTVSPGGTVTLTCASSTGAVTTGNYPNWFQEKPGQAFRGLIAGTNNRAPWVPARFSGSLIGDKAALTLSGVQPEDEAEYFCALWFSSHWVFGGGTKLTVLGGGGSGGGGSGGGGSEVQLVQSGAEVKKPGASVKVSCKASGYSFTGYYMHWVRQAPGQGLEWIGRINPYTGVPSYKHKFQGRVTLTVDKSTSTAYMELSSLRSEDTAVYYCARELGGYWGQGTTVTVSSTSTTTPAPRPPTPAPTIASQPLSLRPEACRPAAGGAVHTRGLDFACDIYIWAPLAGTCGVLLLSLVITKRGRKKLLYIFKQPFMRPVQTTQEEDGCSCRFPEEEEGGCELRVKFSRSADAPAYQQGQNQLYNELNLGRREEYDVLDKRRGRDPEMGGKPRRKNPQEGLYNELQKDKMAEAYSEIGMKGERRRGKGHDGLYQGLSTATKDTYDALHMQALPPR
notes: Chimeric antigen receptor on 293T cells; also called L1H1
With B2, the binding result in assay [2] is “binds”.

B3: CAR Construct No. 12, hu15B6 scFv (huVL2-lin-huVH2) (other)
chain: B2 chain with E41Q, R57K, P59S, V61T, I70L, F90Y, E126Q, I173M, L195M
notes: Chimeric antigen receptor on 293T cells; also called L2H2
Take B3: the binding result in assay [2] was “binds”.

B4: CAR Construct No. 10, hu15B6 scFv (huVL1-lin-huVH2) (other)
chain: B2 chain with E126Q, I173M, L195M
notes: Chimeric antigen receptor on 293T cells; also called L1H2
For the molecule B4, the binding result in assay [2] is on record as “binds”.

B5: CAR Construct No. 11, hu15B6 scFv (huVL2-lin-huVH1) (other)
chain: B2 chain with E41Q, R57K, P59S, V61T, I70L, F90Y
notes: Chimeric antigen receptor on 293T cells; also called L2H1
As to B5, in assay [2], the binding result is recorded as “binds”.
